No constants are given. Whether binding was seen depends on the method and setting. Binding seen in cells or lysates may run through a third protein. Some results given as binding are weak or reduced against the parent protein; the word gives no strength.
Biological target: T1, pDIQ peptide
T1 sequence (peptide): ETFEHWWSQLLSGGC
Assay: pull-down; lysates of HeLa cells expressing T11β1-MDM2, Tau-HAT10 and T10HA-P53, 30 min at room temperature with pDIQ-conjugated beads; capture of MDM2 by the peptide; only the target purified

Protein sequences, listed by entry. Tags and fused reporters are not part of them.
UniProt Q00987: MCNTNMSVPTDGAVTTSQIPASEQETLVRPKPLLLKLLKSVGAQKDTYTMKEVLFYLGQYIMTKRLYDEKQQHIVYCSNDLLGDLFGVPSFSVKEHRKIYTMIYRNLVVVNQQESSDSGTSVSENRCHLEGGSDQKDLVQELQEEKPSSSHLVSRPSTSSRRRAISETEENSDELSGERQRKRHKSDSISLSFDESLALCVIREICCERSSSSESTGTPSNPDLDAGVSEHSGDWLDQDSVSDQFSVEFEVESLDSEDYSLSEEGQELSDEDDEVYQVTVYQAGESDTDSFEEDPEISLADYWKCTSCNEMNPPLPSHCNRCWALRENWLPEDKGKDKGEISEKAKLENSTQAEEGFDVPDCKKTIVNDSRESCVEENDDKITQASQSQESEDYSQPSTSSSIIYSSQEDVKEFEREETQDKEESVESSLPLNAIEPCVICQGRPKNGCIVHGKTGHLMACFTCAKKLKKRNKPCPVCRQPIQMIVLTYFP

binding: binds
Substance: T11β1-MDM2 (from UniProt Q00987 1-491)

From publication PMC10290082
